PubChem BioAssay AID1259424 – University of Nebraska Medical Center | 2018

Screen: 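Seek colon cancer survival genes behaving like KSR1, using a six-gene signature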 (primary screen)
System: human HCT116 colon cancer cells
Knock-down reagent: siRNA pool against human genes, 50 nM
Measurement: 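Six signature mRNAs by branched-DNA multiplex assay, scaled to two housekeeping genes and non-targeting median, log2; matched to mean KSR1 knockdown profile by Pearson correlation and euclidean distance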
Reading the numbers: mean correlation with KSR1 profile: higher = expression change more like KSR1 knockdown
The deposit covers about 14,000 reagents; shown is an unselected part. 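Higher correlation or smaller distance means closer resemblance to KSR1 loss; control wells, including KSR1 knockdowns, recur on many plates.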 The numbers tell different reagents against one gene apart. Not all columns of the deposit are shown. No sequences are given here. The record does not give: the time to read-out.

mean correlation with KSR1 profile	Gene	reagent no.
0.535	KCNE3	1
-0.541	PCDH9 (protocadherin 9)	1
-0.0604	FDPS (farnesyl diphosphate synthase)	1
-0.0048	TUBGCP4 (tubulin gamma complex component 4)	1
0.443	EBF4 (EBF transcription factor 4)	1
0.534	NR1D2 (nuclear receptor subfamily 1 group D member 2)	1
-0.359	ACTR1B (actin related protein 1B)	1
-0.255	CD70 (CD70 molecule)	1
0.252	RANGAP1 (Ran GTPase activating protein 1)	1
0.741	LY6G5C (lymphocyte antigen 6 family member G5C)	1
-0.662	PDXDC1 (pyridoxal dependent decarboxylase domain containing 1)	1
-0.567	CACNA1A (calcium voltage-gated channel subunit alpha1 A)	1
0.0297	ALPK2 (alpha kinase 2)	1
0.779	BCO2 (beta-carotene oxygenase 2)	1
0.459	RUNX1 (RUNX family transcription factor 1)	1
-0.564	EXOC4 (exocyst complex component 4)	1
0.625	IRF8 (interferon regulatory factor 8)	1
0.0189	AHCYL2 (adenosylhomocysteinase like 2)	1
-0.363	TSPAN9 (tetraspanin 9)	1
0.278	TSPAN9 (tetraspanin 9)	2

Look-ups from the entries so far:
PCDH9 (protocadherin 9), mean correlation with KSR1 profile → -0.541
Under “mean correlation with KSR1 profile”, EBF4 (EBF transcription factor 4) has 0.443
